Data as given in PubChem BioAssay AID504764 (Drosophila RNAi Screening Center, 2011)

Assay: 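Genes whose knock-down alters Notch-dependent transcription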 (primary screen)
Cells: Drosophila Kc167 cells
Knock-down reagent: long dsRNA against Drosophila genes
Timing: about 5 days (4 days dsRNA, then 24 h after transfection)
Challenge: transfection of constitutively active membrane-tethered Notch lacking the extracellular domain, read 24 h later
Measured: 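Light from a Notch-responsive E(spl)m3 luciferase reporter under active Notch, with control-promoter and no-Notch reporter wells to normalise; raw counts from paired wells a and b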
Direction: induced reporter light, run 1, well a and induced reporter light, run 1, well b: higher = more light from the Notch target reporter with active Notch; control promoter light, run 1, well a and control promoter light, run 1, well b: higher = more light from the viral control promoter (cell number, transfection, viability); uninduced reporter light, run 1, well a: higher = more light from the Notch target reporter without active Notch
Call rule: 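Wells with low control signal or poorly matching duplicates excluded; duplicates averaged; per source plate, z beyond ±2 for induced/control log2 ratio or beyond ±1.8 for induced/uninduced marks a hit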
Meaning of the calls: active = modifier hit (raised or lowered Notch signal); inactive = not a hit
The deposit covers about 22,000 reagents; this is an unselected part of those with a known target gene and a result. Of all reagents, 403 (1.9%) are marked active. 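Unnormalised raw counts per well; ratio z-scores behind the hit calls and whether each hit raises or lowers signal are not deposited.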 Reagent sequences are not shown. Not given: the amount of reagent.

target gene	dsRNA	induced reporter light, run 1, well a	induced reporter light, run 1, well b	control promoter light, run 1, well a	control promoter light, run 1, well b	uninduced reporter light, run 1, well a	outcome
CG14259	DRSC14754	1.66e5	1.26e5	1.88e5	1.50e5	12445	inactive
CG5973	DRSC02918	98810	99065	99870	89085	7075	inactive
myd (mayday)	DRSC14762	25040	28635	20655	23715	6938	inactive
myd (mayday)	DRSC15512	1.81e5	1.71e5	2.08e5	2.06e5	13330	inactive
Trf4-2 (Topoisomerase related function 4-2)	DRSC15237	1.68e5	1.84e5	1.91e5	1.83e5	11830	inactive
sfl (sulfateless)	DRSC08828	1.68e5	1.74e5	1.37e5	1.42e5	13300	inactive
sfl (sulfateless)	DRSC08830	1.41e5	1.41e5	1.59e5	1.77e5	13085	inactive
Socs44A (Suppressor of Cytokine Signaling at 44A)	DRSC06828	1.84e5	1.99e5	2.45e5	2.26e5	17550	inactive
CG12093	DRSC08252	1.19e5	82040	2.26e5	1.71e5	8350	inactive
Best2 (Bestrophin 2)	DRSC09712	2.56e5	2.43e5	2.36e5	2.20e5	11985	inactive
CG42271	DRSC19809	1.94e5	2.09e5	2.16e5	1.99e5	12150	inactive
CG9394	DRSC04550	37820	35740	48815	35715	2155	inactive
hzg (herzog)	DRSC10549	1.45e5	1.37e5	1.04e5	1.12e5	15578	inactive
RpL3 (Ribosomal protein L3)	DRSC16834	66275	62960	45500	27235	8460	inactive
AQP (aquaporin)	DRSC06122	1.22e5	1.06e5	1.39e5	1.29e5	9040	inactive
eIF3i (eukaryotic translation initiation factor 3 subunit i)	DRSC03464	12480	12045	14740	18570	800	active
LUBEL (Linear Ubiquitin E3 ligase)	DRSC02141	66725	43340	69430	79535	3945	inactive
CG10969	DRSC09811	1.96e5	1.76e5	2.19e5	1.92e5	11445	inactive
dbf (doublefault)	DRSC02570	1.54e5	1.78e5	92260	1.15e5	21055	inactive
CG31141	DRSC13646	1.90e5	1.93e5	2.27e5	2.39e5	15385	inactive
dmGlut (Dietary and metabolic glutamate transporter)	DRSC02835	2.01e5	1.72e5	1.29e5	1.35e5	15035	inactive
Rab35	DRSC20691	1.43e5	1.42e5	1.39e5	91885	11142	inactive
Cyp4d2 (Cytochrome P450 4d2)	DRSC18458	1.82e5	1.90e5	3.02e5	2.53e5	12385	inactive
CG14252	DRSC14747	1.18e5	1.28e5	1.83e5	1.55e5	9760	inactive
mRpL43 (mitochondrial ribosomal protein L43)	DRSC04508	2.41e5	2.08e5	1.80e5	1.99e5	16035	inactive
mRpL43 (mitochondrial ribosomal protein L43)	DRSC22571						inactive
Pde9 (Phosphodiesterase 9)	DRSC19746	1.07e5	84805	1.24e5	1.27e5	7420	inactive
Pde9 (Phosphodiesterase 9)	DRSC19874	97240	1.12e5	2.03e5	1.89e5	7820	inactive
Pde9 (Phosphodiesterase 9)	DRSC19875	82840	1.00e5	1.03e5	1.15e5	6065	inactive
Pde9 (Phosphodiesterase 9)	DRSC19876	1.24e5	1.17e5	1.66e5	1.91e5	8165	inactive
Mad	DRSC00759	1.86e5	1.44e5	1.91e5	1.49e5	11515	inactive
CG4270	DRSC00648	1.13e5	1.12e5	1.17e5	63695	10065	inactive
CG9806	DRSC18444	94580	1.08e5	1.82e5	1.84e5	7460	inactive
Lamp1	DRSC03727	52340	42460	41825	55070	3290	inactive

Entries above whose target name begins with D or d:
target gene	dsRNA	induced reporter light, run 1, well a	induced reporter light, run 1, well b	control promoter light, run 1, well a	control promoter light, run 1, well b	uninduced reporter light, run 1, well a	outcome
dbf (doublefault)	DRSC02570	1.54e5	1.78e5	92260	1.15e5	21055	inactive
dmGlut (Dietary and metabolic glutamate transporter)	DRSC02835	2.01e5	1.72e5	1.29e5	1.35e5	15035	inactive
